# From US20250382631A1, “PROTAC-CID SYSTEMS FOR USE IN MULTIPLEX GENE REGULATION” (William Marsh Rice University, priority 2022, published 2025)
# Some results were stated once for a whole list of compounds, not compound by compound. For at least one compound, name, drawing or mass did not settle the structure.
# Test system: pUAS-1-driven EYFP expression in HEK293T cells transfected with GAL4- and VPR-fused PROTAC target protein / E3 ubiquitin ligase
# Assay: PROTAC-CID inducible EYFP gene activation, flow cytometry
# Format: cell-based, human
# Conditions: full-length target proteins, 2 days of induction, vs DMSO; concentrations per Table 5 (dTRIM24 5 μM, dTAG-13 100 nM, MZ1 100 nM), FIG. 1B
# Protocol: Fluorescence assay using flow cytometry analysis. Cells were treated with 0.05% Trpsin EDTA (Thermo Fisher Scientific no. 25300054) or TrypLE (Thermo Fisher Scientific no. 12605028) after transfection and centrifuged at 3000 g for 5 min. Supernatant was removed and the cell pellet was resuspended with 200 μL phosphate buffered saline (PBS) without calcium and magnesium (Thermo Fisher Scientific no. 10010023). Cells were transferred into 12×75 mm flow tubes (Global Scientific no. 110410). Cells were analyzed by MA900 flow cytometry (SONY). 405 nm laser (FL6 filter) was used for testing the BFP channel. 488 nm (FL1 filter) was used for testing the EYFP and GFP channel. […] Flow cytometry data was processed and analyzed by FlowJo 10. […] The mean intensity of the reporter fluorescent protein (BFP and EYFP) in viable and single cell populations were calculated by FlowJo 10 as the mean of FL6-A and FL1-A. When calculating the fold change of relative fluorescence units (RFU), the relative fluorescence units of EYFP was calculated by dividing the mean of fluorescence intensity of EYFP with the mean of BFP fluorescence intensity for normalization as the following formula: […]
# Next, the mean of the normalized relative fluorescence units of induced group were divided by the value of control group for calculating the fold change as the following formula: […]
structure (smiles),measurement,value
CC[C@H](C(=O)N1CCCC[C@H]1C(=O)O[C@H](CCc1ccc(OC)c(OC)c1)c1ccccc1OCC(=O)NCCCCCCOc1cccc2c1C(=O)N(C1CCC(=O)NC1=O)C2=O)c1cc(OC)c(OC)c(OC)c1 (stereo partly shown) [dTAG-13],increase in EYFP expression,> 100 fold
